Assay results from patent US7381728B2, “Piperazine derivatives useful for the treatment of gastrointestinal disorders” (Glaxo Group Limited, priority 2004, dated 2008).
Some entries share one result that the patent states for a list of compounds.

Protein sequences, listed by entry. Tags and fused reporters are not part of them.
UniProt Q92847, whole entry: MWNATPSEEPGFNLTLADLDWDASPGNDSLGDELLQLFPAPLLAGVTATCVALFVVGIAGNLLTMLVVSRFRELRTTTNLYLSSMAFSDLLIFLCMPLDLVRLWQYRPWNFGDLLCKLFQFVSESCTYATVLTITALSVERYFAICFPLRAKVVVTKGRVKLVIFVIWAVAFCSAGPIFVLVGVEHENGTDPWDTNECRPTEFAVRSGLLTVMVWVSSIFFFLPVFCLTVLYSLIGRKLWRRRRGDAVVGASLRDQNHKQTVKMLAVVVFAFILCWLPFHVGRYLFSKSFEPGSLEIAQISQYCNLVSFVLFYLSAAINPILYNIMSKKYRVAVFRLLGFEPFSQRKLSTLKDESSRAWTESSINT

Legend:
Ghrelin Receptor GHS-R [1] = target: T1, Ghrelin Receptor GHS-R (Homo sapiens, UniProt Q92847); assay: GHS-R GTPγS functional agonist assay; assay type: biochemical; parameters: The open reading frame of GHS-R was transferred from pCDN into pFastBacmam vector; expressed in transfected cells; host or cells: Membranes of HEK293T cells (Lipofectamine, pCDNA3) or of HEK293F cells (BacMam co-transduction with rat Gαo); conditions: membranes of HEK293 cells transiently expressing GHS-R (protocols I and II); [35S]GTPγS SPA; read-out: activity in the GHS-R GTPγS functional agonist assays
Ghrelin Receptor GHS-R [2] = target: T1, Ghrelin Receptor GHS-R; assay: GHSR Agonist BACMAM FLIPR Assay; assay type: cell-based; parameters: The open reading frame of GHS-R was transferred from pCDN into pFastBacmam vector; expressed in transfected cells; host or cells: HEK MSR II cells or U2OS cells transduced with human GHSR BacMam virus; conditions: HEK MSR II or U2OS cells transduced with human GHSR BACMAM virus; Fluo 4 calcium fluorescence

| Structure (SMILES) | EC50 (Ghrelin Receptor GHS-R [1]) [nM] | EC50 (Ghrelin Receptor GHS-R [2]) [nM] |
| --- | --- | --- |
| COc1ccc(N2C[C@@H](C)N[C@@H](C)C2)cc1NS(=O)(=O)c1ccc(-c2cc(C)cs2)s1 [Example 200, N-[5-(cis-3,5-Dimethyl-1-piperazinyl)-2-(methyloxy)phenyl]-4′-methyl-2,2′-bithiophene-5-sulfonamide] | < 1000 | < 1000 |
| COc1ccc(N2C[C@@H](C)N[C@@H](C)C2)cc1NS(=O)(=O)c1ccc(-c2ccc(C)o2)cc1F [Example 309, N-[5-(cis-3,5-Dimethyl-1-piperazinyl)-2-(methyloxy)phenyl]-2-fluoro-4-(5-methyl-2-furanyl)benzenesulfonamide] | < 1000 | < 1000 |
| CC(=O)c1ccc(N2C[C@@H](C)N[C@@H](C)C2)cc1NS(=O)(=O)c1ccc(-n2cccn2)cc1 [Example 27, N-[2-Acetyl-5-(cis-3,5-dimethyl-1-piperazinyl)phenyl]-4-(1H-pyrazol-1-yl)benzenesulfonamide] | < 1000 | < 1000 |
| COc1cc(-c2ccoc2)ccc1S(=O)(=O)Nc1cc(N2C[C@@H](C)N[C@@H](C)C2)ccc1F [Example 263, N-[5-(cis-3,5-Dimethyl-1-piperazinyl)-2-fluorophenyl]-4-(3-furanyl)-2-(methyloxy)benzenesulfonamide] | < 1000 | < 1000 |
| COc1ccc(N2C[C@@H](C)N[C@@H](C)C2)cc1NS(=O)(=O)c1ccc(-c2ccc(F)cc2C)s1 [Example 207, N-[5-(cis-3,5-Dimethyl-1-piperazinyl)-2-(methyloxy)phenyl]-5-(4-fluoro-2-methylphenyl)-2-thiophenesulfonamide] | < 1000 | < 1000 |
| COc1ccc(N2C[C@@H](C)N[C@@H](C)C2)cc1NS(=O)(=O)c1ccc2c(c1)CCC(C)(C)O2 [Example 80, N-[5-(cis-3,5-Dimethyl-1-piperazinyl)-2-(methyloxy)phenyl]-2,2-dimethyl-3,4-dihydro-2H-chromene-6-sulfonamide] | < 1000 | < 1000 |
| COc1ccc(NS(=O)(=O)c2ccc(-c3cccc(C)n3)s2)cc1N1C[C@@H](C)N[C@@H](C)C1 [Example 21, N-[3-(cis-3,5-Dimethyl-1-piperazinyl)-4-(methyloxy)phenyl]-5-(6-methyl-2-pyridinyl)-2-thiophenesulfonamide] | < 1000 | < 1000 |
| COc1ccc(N2C[C@@H](C)N[C@@H](C)C2)cc1NS(=O)(=O)c1ccc(-c2ccsc2)s1 [Example 142, N-[5-(cis-3,5-Dimethyl-1-piperazinyl)-2-(methyloxy)phenyl]-2,3′-bithiophene-5-sulfonamide] | < 1000 | < 1000 |
| C[C@@H]1CN(c2ccc(F)c(NS(=O)(=O)c3ccc(I)cc3)c2)C[C@H](C)N1 [Example 85, N-[5-(cis-3,5-Dimethyl-1-piperazinyl)-2-fluorophenyl]-4-iodobenzenesulfonamide] | < 1000 | < 1000 |
| COCc1ccc(N2C[C@@H](C)N[C@@H](C)C2)cc1NS(=O)(=O)c1ccc(-c2ccccc2)cc1 [Example 92, N-{5-(cis-3,5-Dimethyl-1-piperazinyl)-2-[(methyloxy)methyl]phenyl}-4-biphenylsulfonamide] | < 1000 | < 1000 |
| COc1ccc(NS(=O)(=O)c2ccc(-c3cccs3)c(C)c2)cc1N1C[C@@H](C)N[C@@H](C)C1 [Example 169, N-[3-(cis-3,5-Dimethyl-1-piperazinyl)-4-(methyloxy)phenyl]-3-methyl-4-(2-thienyl)benzenesulfonamide] | < 1000 | < 1000 |
| C[C@@H]1CN(c2ccc(F)c(NS(=O)(=O)c3ccc(Br)cc3F)c2)C[C@H](C)N1 [Example 86, 4-Bromo-N-[5-(cis-3,5-dimethyl-1-piperazinyl)-2-fluorophenyl]-2-fluorobenzenesulfonamide] | < 1000 | < 1000 |
| COc1ccc(N2C[C@@H](C)N[C@@H](C)C2)cc1NS(=O)(=O)c1ccc(-c2csnn2)s1 [Example 79, N-[5-(cis-3,5-Dimethyl-1-piperazinyl)-2-(methyloxy)phenyl]-5-(1,2,3-thiadiazol-4-yl)-2-thiophenesulfonamide] | < 1000 | < 1000 |
